# Test results as given in PubChem BioAssay AID504467 (National Center for Advancing Translational Sciences (NCATS), 2011).
# In all, about 330,000 compounds went through this assay and about 7,700 (2.3%) were called active. This list was built around the results that the source calls inconclusive (neither active nor inactive); the mix of calls is not that of the screen. Calls follow the shape of the dose curve; as a rule, active = well fitted inhibition curve with a large enough effect; inconclusive = small, poorly fitted or top-dose-only effect, or effect the other way; inactive = flat fitted curve, though single readings scatter. Potencies beside an inconclusive call are fits to weak or partial responses and may not hold up.
# Assay: qHTS screen for small molecules that inhibit ELG1-dependent DNA repair in human embryonic kidney (HEK293T) cells expressing luciferase-tagged ELG1; also: nearly all actives have a fitted effect of over 55% in size
# Settings: HEK293T ELG1-luciferase reporter, luminescence, 16 h, DNA damage induced by 5-fluorouridine; activity change, negative = inhibition: at 46.1 µM (top of the series)
# Method in brief: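 Cells (2,000 per well) received 5-fluorouridine plus test compound or DMSO and were incubated 16 hr at 37 °C, 5% CO2. Luciferase activity was read by luminescence 30 min after ONE-Glo addition; signal suppression marked inhibition of damage-induced ELG1 function.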
# % is scaled to controls: 0 for no effect and ±100 for the full control effect; potency is read from the fitted curve at half-maximal effect.
Structure (SMILES),Potency,"activity change, negative = inhibition"
COC(=O)c1ccc(CNC(=O)c2cc(COc3cncc(Cl)c3)on2)cc1,active: 20.6 µM,–
COc1ccc(-c2csc(N(C)C(=O)c3cccs3)n2)cc1,"inconclusive: 10.3 µM [activator, partial curve]",–
COc1ccc(C(C)(C)C)cc1NC(=O)c1cncc(Br)c1,–,inactive: -7.33%
CN(Cc1cccnc1)C(=O)c1ccc2nc(Cc3ccccc3F)oc2c1,"inconclusive: 20.6 µM [activator, partial curve]",–
Cc1nc2nc(CSc3nnc(C)s3)cc(=O)n2[nH]1,–,inactive: 0%
Nc1n[nH]c(C(F)(F)F)c1-c1ccccc1,"inconclusive: 29.1 µM [inhibitor, single point]",–
O=C(c1ccc(CS(=O)Cc2ccc(Cl)cc2)o1)N1CCN(c2ccccc2F)CC1 (centres undefined),"inconclusive: 29.1 µM [inhibitor, single point]",–
COc1ccccc1Cn1c(=S)[nH]c2cc(C(=O)NCc3cccnc3)ccc2c1=O,"inconclusive: 23.1 µM [inhibitor, single point]",–
O=C(O)c1ccc(S(=O)(=O)NCC2CCCCC2)cc1,–,inactive: -5.48%
C=CCc1cccc(/C=N/NC(=O)CCCNc2ccc(C)cc2)c1O,"inconclusive: 29.1 µM [inhibitor, single point]",–
COc1cc(OC)cc(C(=O)NNC(=O)c2ccc3ccccc3n2)c1,"inconclusive: 0.651 µM [activator, full curve, poor fit]",–
Cc1ccc(Cl)cc1N1CCN(S(=O)(=O)c2ccc3[nH]c(=O)ccc3c2)CC1,–,inactive: 17.3%
Cc1cc(C)c(NC(=O)Cn2nnc(C(=O)NCc3ccco3)c2N)c(C)c1,"inconclusive: 29.1 µM [activator, single point]",–
Cc1cccc(NC(=O)CN(C)C(=O)C2CCCC2)c1C,–,inactive: 9.69%
Cc1cc(C)c2nc(N3CCCC(C(=O)NCCCN4CCOCC4)C3)sc2c1 (centres undefined),"inconclusive: 11.6 µM [activator, partial curve]",–
CC1(C)Cc2nc3sc(C(=O)NCCCO)c(N)c3cc2CS1,"inconclusive: 29.1 µM [activator, single point]",–
COc1ccc2nc(/C=N/NC(=O)CCCCCNC(=O)OC(C)(C)C)ccc2c1,"inconclusive: 29.1 µM [activator, single point]",–
COc1ccc(-c2nc(-c3ccc(Br)o3)no2)cc1OC,"inconclusive: 20.6 µM [activator, partial curve]",–
COc1ccc(NC(=O)CSc2nc(C)cs2)cc1,"inconclusive: 16.4 µM [activator, single point]",–
Cc1cccc(NC(=O)c2ccc(F)c(S(=O)(=O)N3CCC4(CC3)OCCO4)c2)c1,"inconclusive: 29.1 µM [inhibitor, single point]",–
O=C(CSCc1ccco1)c1cccs1,"inconclusive: 18.4 µM [activator, partial curve]",–
CCOC(=O)N1CCC(NC(=O)CSCc2nc(-c3ccccc3Cl)oc2C)CC1,"inconclusive: 29.1 µM [inhibitor, single point]",–

Structure (SMILES),Potency,"activity change, negative = inhibition"
On1c(-c2ccccc2Cl)nc2ncccc21,–,inactive: -2.02%
Fc1ccc(NC(=S)Nc2cccnc2)c(F)c1F,"inconclusive: 23.1 µM [inhibitor, single point]",–
CC(C)C12CN3CC(C(C)C)(CN(C1)C3c1ccccc1O)C2=O (centres undefined),"inconclusive: 25.9 µM [inhibitor, single point]",–
O=C(COC(=O)c1ccc[nH]c1=O)NC1CCCCCC1,"inconclusive: 16.4 µM [activator, single point]",–
Cc1cccc(C)c1NC(=O)CN(C)C(=O)CCc1nc2sc3c(c2c(=O)[nH]1)CCCC3,"inconclusive: 3.26 µM [inhibitor, full curve]",–
CCCN=C1N(C)C[C@@H]2[C@@H]3C(=O)N(C)C(=O)[C@@H]3[C@](C)(C(=O)OC)N12,"inconclusive: 29.1 µM [activator, single point]",–
CC(=O)c1c(C)[nH]c(C(=O)NCCc2ccccc2)c1C,"inconclusive: 2.59 µM [activator, single point]",–
Cc1ccccc1-c1nnc(-c2ccccc2)o1,"inconclusive: 5.8 µM [activator, partial curve]",–
Cc1cc2n(n1)SC(Nc1ccccc1)N2 (centres undefined),"inconclusive: 1.41 µM [activator, partial curve, poor fit]",–
Cc1nc(Cl)cc(N/N=C/c2ccc(O)cc2)n1,"inconclusive: 20.6 µM [activator, single point]",–
CC(NC(=O)c1ccc(Cl)cc1Cl)C(c1ccccc1)N1CCOCC1 (centres undefined),"inconclusive: 20.6 µM [activator, partial curve, poor fit]",–
O=C([C@H](Cc1ccccc1)N1C(=O)c2ccccc2C1=O)N1CCOCC1,–,inactive: -3.18%
CCN(CC)CCCNC(=O)c1cc2c(=O)[nH]c3ccc(C)cc3c2s1,"inconclusive: 20.6 µM [activator, single point]",–
Cc1cc(NC(=O)CSc2nc(=O)cc(N)n2-c2ccc(Cl)cc2)no1,–,inactive: 6.59%
CCN(CC(=O)Nc1c(F)cccc1F)C(=O)c1ccc2c(=O)n3c(nc2c1)CCC3,"inconclusive: 20.6 µM [activator, single point]",–
COc1cnc(-c2ccccc2)nc1Sc1ccccc1,"inconclusive: 16.4 µM [inhibitor, single point]",–
COc1cccc(C(=O)OCC(=O)c2ccc(Br)s2)c1OC,"inconclusive: 29.1 µM [activator, single point]",–
N#C/C(=C/c1cccc(C(F)(F)F)c1)c1nc(CCN2C(=O)c3ccccc3C2=O)cs1,–,inactive: 0.0219%
CCc1cc(=O)oc2cc(C)cc(OCC(=O)N3CCC(C(=O)NC(C)C)(c4ccccc4)CC3)c12,"inconclusive: 23.1 µM [inhibitor, partial curve, poor fit]",–
Brc1ccccc1/C=N/Nc1nc2ccccc2o1,"inconclusive: 4.11 µM [activator, full curve]",–
COC(=O)[C@H](CC(C)C)NC(=O)Cn1cnc2c(SC)nc(N)nc21,–,inactive: 6.57%
O=C(CNCCc1ccccc1)N1CCc2ccccc2C1,"inconclusive: 32.6 µM [activator, partial curve, poor fit]",–

# In a second layout: results already given.
Structure (SMILES)	Potency	activity change, negative = inhibition
Cc1cc2n(n1)SC(Nc1ccccc1)N2 (centres undefined)	inconclusive: 1.41 µM [activator, partial curve, poor fit]	–
CCN(CC(=O)Nc1c(F)cccc1F)C(=O)c1ccc2c(=O)n3c(nc2c1)CCC3	inconclusive: 20.6 µM [activator, single point]	–
